According to the supplement of paper PMC10849652:
This is one part of the list.

Chains of the proteins cited; added tags and fusions are not shown. Lines headed by an entry give the natural chain unless they say otherwise; changes in a name come on top.
UniProt P11279: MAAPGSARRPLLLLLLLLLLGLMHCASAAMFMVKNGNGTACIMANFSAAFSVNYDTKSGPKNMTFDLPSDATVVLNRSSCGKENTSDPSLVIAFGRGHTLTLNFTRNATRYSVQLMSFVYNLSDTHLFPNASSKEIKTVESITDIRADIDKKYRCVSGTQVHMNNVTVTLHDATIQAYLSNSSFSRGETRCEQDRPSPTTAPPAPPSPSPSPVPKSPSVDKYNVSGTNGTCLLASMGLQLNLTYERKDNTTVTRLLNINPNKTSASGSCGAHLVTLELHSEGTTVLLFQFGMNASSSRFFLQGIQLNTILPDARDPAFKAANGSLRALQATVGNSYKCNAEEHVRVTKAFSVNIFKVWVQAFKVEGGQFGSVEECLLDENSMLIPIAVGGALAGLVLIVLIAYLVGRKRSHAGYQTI
UniProt O60268: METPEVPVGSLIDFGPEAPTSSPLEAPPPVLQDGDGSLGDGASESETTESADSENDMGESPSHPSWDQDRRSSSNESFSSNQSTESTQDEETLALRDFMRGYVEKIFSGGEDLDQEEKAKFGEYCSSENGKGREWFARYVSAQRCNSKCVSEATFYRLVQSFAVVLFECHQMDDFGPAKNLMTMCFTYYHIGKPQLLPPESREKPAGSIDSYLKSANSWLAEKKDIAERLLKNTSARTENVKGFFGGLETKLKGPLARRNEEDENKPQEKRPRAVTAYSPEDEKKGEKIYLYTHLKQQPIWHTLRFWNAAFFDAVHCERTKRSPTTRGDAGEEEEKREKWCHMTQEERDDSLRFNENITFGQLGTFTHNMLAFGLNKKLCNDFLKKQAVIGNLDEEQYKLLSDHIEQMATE
UniProt Q06136: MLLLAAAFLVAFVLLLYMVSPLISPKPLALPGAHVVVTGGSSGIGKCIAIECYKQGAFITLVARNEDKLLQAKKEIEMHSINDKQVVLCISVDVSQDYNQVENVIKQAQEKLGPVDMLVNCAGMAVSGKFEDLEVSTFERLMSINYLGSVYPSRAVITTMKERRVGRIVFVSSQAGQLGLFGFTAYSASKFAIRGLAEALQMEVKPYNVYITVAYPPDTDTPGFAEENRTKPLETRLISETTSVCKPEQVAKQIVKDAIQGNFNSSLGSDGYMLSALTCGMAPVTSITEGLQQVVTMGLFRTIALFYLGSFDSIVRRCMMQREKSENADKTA
UniProt Q8IYS2: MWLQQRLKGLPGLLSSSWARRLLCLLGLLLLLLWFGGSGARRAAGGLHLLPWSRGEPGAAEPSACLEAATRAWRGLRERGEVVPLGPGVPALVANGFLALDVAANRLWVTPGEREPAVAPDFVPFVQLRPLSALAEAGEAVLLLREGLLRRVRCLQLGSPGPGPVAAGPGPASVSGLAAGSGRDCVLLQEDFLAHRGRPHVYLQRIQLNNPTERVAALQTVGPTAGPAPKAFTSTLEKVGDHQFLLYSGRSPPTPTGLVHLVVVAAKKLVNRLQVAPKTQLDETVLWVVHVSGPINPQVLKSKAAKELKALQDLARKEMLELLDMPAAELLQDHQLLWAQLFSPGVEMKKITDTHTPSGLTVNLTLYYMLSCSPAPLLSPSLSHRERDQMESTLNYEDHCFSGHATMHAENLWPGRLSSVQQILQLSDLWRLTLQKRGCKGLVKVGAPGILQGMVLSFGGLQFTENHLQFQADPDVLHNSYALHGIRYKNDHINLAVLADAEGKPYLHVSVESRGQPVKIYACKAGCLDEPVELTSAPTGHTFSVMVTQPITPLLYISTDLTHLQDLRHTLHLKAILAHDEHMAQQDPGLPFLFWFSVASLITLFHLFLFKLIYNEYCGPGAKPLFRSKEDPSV
UniProt O60662: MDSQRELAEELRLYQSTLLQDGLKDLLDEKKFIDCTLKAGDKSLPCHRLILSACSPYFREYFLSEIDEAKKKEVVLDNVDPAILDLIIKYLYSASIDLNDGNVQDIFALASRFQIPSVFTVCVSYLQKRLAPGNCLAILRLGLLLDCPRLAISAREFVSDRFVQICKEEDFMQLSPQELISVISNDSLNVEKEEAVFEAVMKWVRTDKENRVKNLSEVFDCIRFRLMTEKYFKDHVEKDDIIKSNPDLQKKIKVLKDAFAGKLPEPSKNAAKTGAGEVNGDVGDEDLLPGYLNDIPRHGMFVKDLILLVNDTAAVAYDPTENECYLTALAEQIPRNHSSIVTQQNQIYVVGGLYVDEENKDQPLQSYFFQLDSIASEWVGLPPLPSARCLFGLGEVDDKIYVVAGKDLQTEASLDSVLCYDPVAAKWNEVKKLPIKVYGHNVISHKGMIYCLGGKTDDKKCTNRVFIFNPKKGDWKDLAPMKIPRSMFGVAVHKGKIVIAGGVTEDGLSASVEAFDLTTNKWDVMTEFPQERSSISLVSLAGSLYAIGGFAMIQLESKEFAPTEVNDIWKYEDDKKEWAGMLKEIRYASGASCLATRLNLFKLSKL
UniProt Q9H1H9: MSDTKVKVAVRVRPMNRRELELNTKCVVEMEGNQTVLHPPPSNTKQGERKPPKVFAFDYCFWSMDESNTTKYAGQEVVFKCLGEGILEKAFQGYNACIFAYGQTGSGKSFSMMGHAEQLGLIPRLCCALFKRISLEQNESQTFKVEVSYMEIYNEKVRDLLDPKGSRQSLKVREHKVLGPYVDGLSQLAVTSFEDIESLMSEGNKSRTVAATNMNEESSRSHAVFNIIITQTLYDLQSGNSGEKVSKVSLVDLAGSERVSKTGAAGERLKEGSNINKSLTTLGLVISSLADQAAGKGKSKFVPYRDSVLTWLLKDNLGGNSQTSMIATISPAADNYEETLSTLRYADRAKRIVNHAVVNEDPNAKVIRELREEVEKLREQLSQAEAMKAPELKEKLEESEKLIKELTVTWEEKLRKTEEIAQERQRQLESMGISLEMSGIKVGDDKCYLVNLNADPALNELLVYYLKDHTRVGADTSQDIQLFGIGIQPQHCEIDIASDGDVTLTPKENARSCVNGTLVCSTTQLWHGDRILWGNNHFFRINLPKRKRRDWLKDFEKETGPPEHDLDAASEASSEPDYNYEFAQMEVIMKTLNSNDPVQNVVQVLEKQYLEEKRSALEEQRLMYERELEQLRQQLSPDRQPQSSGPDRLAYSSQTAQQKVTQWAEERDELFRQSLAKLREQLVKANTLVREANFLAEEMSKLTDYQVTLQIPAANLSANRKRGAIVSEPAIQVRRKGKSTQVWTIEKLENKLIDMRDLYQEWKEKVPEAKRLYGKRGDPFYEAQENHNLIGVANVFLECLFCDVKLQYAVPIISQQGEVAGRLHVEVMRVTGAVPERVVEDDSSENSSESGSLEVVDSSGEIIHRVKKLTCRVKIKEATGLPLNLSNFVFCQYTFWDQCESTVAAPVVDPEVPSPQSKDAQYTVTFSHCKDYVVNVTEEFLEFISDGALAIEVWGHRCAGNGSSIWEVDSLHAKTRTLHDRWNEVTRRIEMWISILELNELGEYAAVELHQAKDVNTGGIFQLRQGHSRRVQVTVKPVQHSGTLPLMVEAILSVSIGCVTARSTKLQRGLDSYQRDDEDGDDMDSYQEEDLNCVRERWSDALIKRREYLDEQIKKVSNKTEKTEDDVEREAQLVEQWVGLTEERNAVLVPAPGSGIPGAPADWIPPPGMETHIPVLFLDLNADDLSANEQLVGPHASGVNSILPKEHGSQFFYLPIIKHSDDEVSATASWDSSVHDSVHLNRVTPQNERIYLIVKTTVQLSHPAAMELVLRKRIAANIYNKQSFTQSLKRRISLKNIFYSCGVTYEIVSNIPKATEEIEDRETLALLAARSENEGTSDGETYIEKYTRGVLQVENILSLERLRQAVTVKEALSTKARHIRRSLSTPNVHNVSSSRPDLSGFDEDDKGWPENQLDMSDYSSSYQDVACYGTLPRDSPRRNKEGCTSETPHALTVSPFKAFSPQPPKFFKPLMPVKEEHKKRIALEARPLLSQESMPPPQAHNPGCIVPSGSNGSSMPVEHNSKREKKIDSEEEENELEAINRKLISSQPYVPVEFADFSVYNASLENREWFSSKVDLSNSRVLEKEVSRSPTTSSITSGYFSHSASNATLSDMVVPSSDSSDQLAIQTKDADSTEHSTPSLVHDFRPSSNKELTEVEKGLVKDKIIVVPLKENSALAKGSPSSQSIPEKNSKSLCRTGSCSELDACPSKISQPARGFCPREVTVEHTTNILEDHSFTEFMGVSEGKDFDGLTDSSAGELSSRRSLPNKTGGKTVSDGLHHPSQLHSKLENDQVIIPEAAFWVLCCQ
UniProt Q96EK9: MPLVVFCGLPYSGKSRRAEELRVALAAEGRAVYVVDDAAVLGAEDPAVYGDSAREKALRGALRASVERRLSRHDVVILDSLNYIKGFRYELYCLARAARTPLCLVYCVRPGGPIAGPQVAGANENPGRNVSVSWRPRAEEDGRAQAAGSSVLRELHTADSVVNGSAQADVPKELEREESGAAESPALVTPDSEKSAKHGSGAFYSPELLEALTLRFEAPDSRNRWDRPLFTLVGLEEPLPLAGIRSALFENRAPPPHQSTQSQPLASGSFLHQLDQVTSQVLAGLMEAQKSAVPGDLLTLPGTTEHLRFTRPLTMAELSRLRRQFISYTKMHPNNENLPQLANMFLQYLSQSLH
UniProt O43813, whole entry, looked up: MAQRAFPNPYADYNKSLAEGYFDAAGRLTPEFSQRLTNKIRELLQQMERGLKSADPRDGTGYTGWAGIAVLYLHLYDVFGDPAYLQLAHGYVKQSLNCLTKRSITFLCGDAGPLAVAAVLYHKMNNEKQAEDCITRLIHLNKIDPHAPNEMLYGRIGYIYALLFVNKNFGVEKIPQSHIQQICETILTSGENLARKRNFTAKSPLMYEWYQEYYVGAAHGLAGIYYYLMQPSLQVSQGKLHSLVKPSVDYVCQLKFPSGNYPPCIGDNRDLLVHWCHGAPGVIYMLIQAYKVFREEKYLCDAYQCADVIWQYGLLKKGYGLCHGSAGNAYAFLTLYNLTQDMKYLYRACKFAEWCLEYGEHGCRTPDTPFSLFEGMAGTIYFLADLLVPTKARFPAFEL
UniProt Q14807: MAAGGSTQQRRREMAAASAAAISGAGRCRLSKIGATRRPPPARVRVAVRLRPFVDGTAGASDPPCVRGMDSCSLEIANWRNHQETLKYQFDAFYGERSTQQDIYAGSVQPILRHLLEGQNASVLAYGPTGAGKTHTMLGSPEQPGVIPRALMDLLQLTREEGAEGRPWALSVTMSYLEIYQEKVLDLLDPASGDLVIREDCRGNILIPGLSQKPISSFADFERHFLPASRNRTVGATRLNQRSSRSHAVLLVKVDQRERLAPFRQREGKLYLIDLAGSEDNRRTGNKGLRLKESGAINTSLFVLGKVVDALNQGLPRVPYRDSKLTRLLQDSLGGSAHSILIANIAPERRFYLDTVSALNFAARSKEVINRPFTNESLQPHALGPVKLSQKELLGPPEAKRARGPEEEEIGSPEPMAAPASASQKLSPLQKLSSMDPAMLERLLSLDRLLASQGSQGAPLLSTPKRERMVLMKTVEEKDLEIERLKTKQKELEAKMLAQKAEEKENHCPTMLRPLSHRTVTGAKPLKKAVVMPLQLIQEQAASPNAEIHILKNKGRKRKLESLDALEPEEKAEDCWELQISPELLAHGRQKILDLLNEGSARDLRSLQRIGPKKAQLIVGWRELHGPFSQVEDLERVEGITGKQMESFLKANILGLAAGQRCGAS
UniProt Q8IXQ5, whole entry, looked up: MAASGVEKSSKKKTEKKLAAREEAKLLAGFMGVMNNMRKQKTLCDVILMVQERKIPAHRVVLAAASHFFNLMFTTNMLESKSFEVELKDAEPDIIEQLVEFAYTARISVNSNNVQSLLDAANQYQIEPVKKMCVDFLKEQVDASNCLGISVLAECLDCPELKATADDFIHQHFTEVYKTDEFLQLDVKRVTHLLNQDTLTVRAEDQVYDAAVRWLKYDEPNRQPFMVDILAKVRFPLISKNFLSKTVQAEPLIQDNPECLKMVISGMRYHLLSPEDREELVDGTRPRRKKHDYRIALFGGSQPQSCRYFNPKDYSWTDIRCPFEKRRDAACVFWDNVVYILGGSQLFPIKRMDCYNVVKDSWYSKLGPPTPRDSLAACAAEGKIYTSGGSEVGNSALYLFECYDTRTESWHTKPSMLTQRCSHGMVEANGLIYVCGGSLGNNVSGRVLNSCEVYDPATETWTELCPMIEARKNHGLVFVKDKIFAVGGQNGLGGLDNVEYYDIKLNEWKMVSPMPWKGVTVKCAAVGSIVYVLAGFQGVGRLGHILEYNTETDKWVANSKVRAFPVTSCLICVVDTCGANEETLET
UniProt Q9UN81: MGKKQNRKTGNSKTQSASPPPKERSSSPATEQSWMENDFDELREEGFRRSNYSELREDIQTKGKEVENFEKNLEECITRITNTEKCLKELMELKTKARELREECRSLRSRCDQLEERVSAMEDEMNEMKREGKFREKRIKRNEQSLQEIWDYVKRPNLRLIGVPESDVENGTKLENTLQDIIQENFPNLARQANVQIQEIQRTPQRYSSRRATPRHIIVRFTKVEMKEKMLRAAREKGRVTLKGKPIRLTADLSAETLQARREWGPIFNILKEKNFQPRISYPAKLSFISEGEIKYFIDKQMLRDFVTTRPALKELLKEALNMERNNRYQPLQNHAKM

Compound: Cc1cn(-c2cc(NC(=O)c3ccc(C)c(Nc4nccc(-c5cccnc5)n4)c3)cc(C(F)(F)F)c2)cn1 [nilotinib]
Test: log2 fold change, soluble protein after heating vs DMSO (PISA); higher = thermal stabilisation; K562 lysate, 10 uM; active = over 0.2 and 3.5 SD of the protein, either way, in both replicates (recomputed)
How it was run: (§1)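 K562 pellets were dounce-homogenised in PBS pH 7.4 containing 1 mM MgCl2, and the crude extract, at 1 mg/mL protein, was exposed to 10 μM compound for 30 min. Aliquots were heated for 3 min across 48°C-58°C, pooled, brought to 0.5% NP-40 at 4°C and spun at 21,000xg for 90 min, with the supernatant taken as soluble protein. TMTpro 16plex LC-MS/MS with equalised channel sums quantified that protein. Values are log-two fold changes in thermal stability relative to solvent controls, taken from duplicates.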

log2 fold change, inactive:
LAMP1 (UniProt P11279) 0.021
KIAA0513 (UniProt O60268) 0.014
KDSR (UniProt Q06136) -0.01
KIAA2013 (UniProt Q8IYS2) 0.008
KLHL41 (UniProt O60662) -0.037
KIF13A isoform 4 (UniProt Q9H1H9) -0.023
KTI12 (UniProt Q96EK9) -0.01
LANCL1 (UniProt O43813) 0.013
KIF22 (UniProt Q14807) 0.041

Compound: Cc1nc(Nc2n[nH]c3c2CN(C(=O)N[C@H](CN(C)C)c2ccccc2)C3(C)C)c2sccc2n1
Test: as above
How it was run: as §1

log2 fold change, inactive:
KIF11 (UniProt P52732) 0.003
LARP1 (UniProt Q6PKG0) -0.009
KXD1 (UniProt Q9BQD3) 0.083
KLHL7 (UniProt Q8IXQ5) 0.016
KLHL26 (UniProt Q53HC5) 0.141
KIF5A (UniProt Q12840) -0.028
KRTCAP2 isoform 2 (UniProt Q8N6L1) -0.021
LACTB2 (UniProt Q53H82) 0.022
KEL (UniProt P23276) -0.004
KIAA1191 (UniProt Q96A73) 0.025
KPNB1 (UniProt Q14974) -0.012
L1RE1 (UniProt Q9UN81) 0.014
KIF3C (UniProt O14782) -0.117
KRAS (UniProt P01116) -0.014
KIF14 (UniProt Q15058) 0.042
LAMTOR4 (UniProt Q0VGL1) -0.042
KIF21A isoform 5 (UniProt Q7Z4S6) 0.036
KIF4B (UniProt Q2VIQ3) 0.034
KLHL42 (UniProt Q9P2K6) 0.088
KYNU (UniProt Q16719) 0.039
LARP1B, A0A3B3ISF0 -0.016
KNSTRN (UniProt Q9Y448) 0.03
KYAT3 (UniProt Q6YP21) -0.029
LAMP1 (UniProt P11279) -0.033
KIAA0513 (UniProt O60268) -0.029
KDSR (UniProt Q06136) 0.025
KIAA2013 (UniProt Q8IYS2) -0.028
KLHL41 (UniProt O60662) 0.035
KIF13A isoform 4 (UniProt Q9H1H9) 0.06
KTI12 (UniProt Q96EK9) 0.006
LANCL1 (UniProt O43813) -0.008
KIF22 (UniProt Q14807) -0.021

Compound: Cc1nc(Nc2ncc(C(=O)Nc3c(C)cccc3Cl)s2)cc(N2CCN(CCO)CC2)n1 [dasatinib]
Test: as above
How it was run: as §1

log2 fold change, inactive:
KIF11 (UniProt P52732) -0.021
LARP1 (UniProt Q6PKG0) 0
KXD1 (UniProt Q9BQD3) 0.03
KLHL7 (UniProt Q8IXQ5) -0.047
KLHL26 (UniProt Q53HC5) 0.008
KIF5A (UniProt Q12840) -0.012
KRTCAP2 isoform 2 (UniProt Q8N6L1) -0.059
LACTB2 (UniProt Q53H82) 0.016
KEL (UniProt P23276) 0.015
KIAA1191 (UniProt Q96A73) 0.013
KPNB1 (UniProt Q14974) -0.037
L1RE1 (UniProt Q9UN81) -0.004
KIF3C (UniProt O14782) 0.026
KRAS (UniProt P01116) 0.049
KIF14 (UniProt Q15058) -0.035
LAMTOR4 (UniProt Q0VGL1) -0.005
KIF21A isoform 5 (UniProt Q7Z4S6) 0.001
KIF4B (UniProt Q2VIQ3) -0.013
KLHL42 (UniProt Q9P2K6) 0.048
KYNU (UniProt Q16719) 0.19
LARP1B, A0A3B3ISF0 -0.041
KNSTRN (UniProt Q9Y448) -0.048
KYAT3 (UniProt Q6YP21) 0.027
LAMP1 (UniProt P11279) -0.058
KIAA0513 (UniProt O60268) 0.042
KDSR (UniProt Q06136) -0.053
KIAA2013 (UniProt Q8IYS2) -0.022
KLHL41 (UniProt O60662) -0.027
KIF13A isoform 4 (UniProt Q9H1H9) 0.018
KTI12 (UniProt Q96EK9) -0.062
LANCL1 (UniProt O43813) -0.025
KIF22 (UniProt Q14807) -0.023
